Measured values: patent publication US20220378756A1, “ACTIVATING PYRUVATE KINASE R” (FORMA Therapeutics, Inc., priority 2019, published 2022)
For at least one compound, name, drawing or mass did not settle the structure.

Chains of the proteins cited; added tags and fusions are not shown.
UniProt P30613, whole entry R510Q: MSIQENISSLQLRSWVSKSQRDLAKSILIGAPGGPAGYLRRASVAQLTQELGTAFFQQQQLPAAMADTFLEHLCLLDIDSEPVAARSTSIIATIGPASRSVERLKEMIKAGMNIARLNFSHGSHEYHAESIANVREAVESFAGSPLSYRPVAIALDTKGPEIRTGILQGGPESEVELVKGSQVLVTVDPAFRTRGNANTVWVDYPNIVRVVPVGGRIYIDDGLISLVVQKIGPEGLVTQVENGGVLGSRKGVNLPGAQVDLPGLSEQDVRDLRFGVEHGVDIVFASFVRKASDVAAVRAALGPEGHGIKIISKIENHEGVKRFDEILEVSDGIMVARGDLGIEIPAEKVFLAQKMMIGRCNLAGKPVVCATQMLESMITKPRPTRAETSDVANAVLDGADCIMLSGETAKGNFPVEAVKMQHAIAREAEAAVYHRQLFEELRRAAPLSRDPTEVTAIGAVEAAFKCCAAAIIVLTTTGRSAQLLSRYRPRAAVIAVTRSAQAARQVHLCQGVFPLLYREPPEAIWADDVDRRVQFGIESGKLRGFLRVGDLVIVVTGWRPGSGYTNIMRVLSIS

Key:
[1] = target: wt-PKR (Homo sapiens, UniProt P30613); test: Enzyme assay of PKR activation (Vmax, PEP Km, AC50); format: biochemical; conditions: for Vmax (normalized): WT-PKR, 2 μM Compound 1, normalized within row
[2] = target: PKR-R510Q (Homo sapiens, UniProt P30613, R510Q); test: as above; format: biochemical; conditions: for Vmax (normalized): PKR R510Q, 2 μM Compound 1, normalized within row
[3] = test system: HbA RBCs; test: In vitro mixing with RBCs from healthy donors, oxygen affinity; format: cell-based, human; conditions: in vitro incubation, FIG. 14
[4] = test system: HbS RBCs; test: In vitro treatment of sickle RBCs: oxygen affinity, oxygen scan; format: cell-based, human
[5] = test system: Berkeley SS mouse (human HgbS); test: Berkeley SS mouse model of SCD, 7 days in chow; format: in vivo; conditions: 1000 ppm in chow
From the text: Targeted gene deletions and a human transgene in the Berkeley SS mouse model result in mice that express human HgbS almost exclusively (Pászty C. Transgenic and gene knock-out mouse models of sickle cell anemia and the thalassemias. Curr Opin Hematol. 1997 March; 4(2):88-93) and mimic the genetic, hematologic, and histopathologic features of SCD in humans. These include irreversibly sickled RBCs, anemia, and multi-organ pathology.
The effects of Compound 1 on Hgb affinity for oxygen, percentage of sickled cells, and/or Hgb were evaluated in the Berkley SS mouse. Two studies were conducted where mice received 0 or 1000 ppm Compound 1 ad libitum in mouse chow for 7 days. Blood was drawn on Day 7 and analyzed under hypoxic conditions. Red cell parameters were measured by ADVIA.

[6] = test system: 2,3-DPG, ATP and p50 in blood; test: Phase 1 SAD/MAD, healthy volunteers: pharmacodynamics; format: in vivo, human; conditions: HS, by Day 4 of dosing, all dose cohorts
From the text: This is a first-in-human (FIH), Phase 1 study of Compound 1 that will characterize the safety, PK, and PD of Compound 1 after a single dose and after repeated dosing first in healthy adult volunteers and then in adolescents or adults with sickle cell disease. Initially, a dose range of Compound 1 in single ascending dose (SAD) escalation cohorts will be explored in healthy subjects. Enrollment of healthy subjects into 2-week multiple ascending dose (MAD) escalation cohorts will be initiated once the safety and PK from at least two SAD cohorts is available to inform the doses for the 2-week MAD portion of the study. The MAD cohorts will then run in parallel to the single dose cohorts. A single dose cohort is planned to understand food effects (FE) on the PK of Compound 1. […]
(§1) In this study, SAD/MAD cohorts are randomized (3 to 1) to receive Compound 1 or placebo (P). Compound 1 was evaluated first in 4 healthy SAD cohorts and 4 healthy MAD (14-day dosing period) cohorts. Based on the safety, and PK/PD profile from HS, Compound 1 is then evaluated in 1 SCD SAD cohort and 2 SCD MAD cohorts. Specifically, based on the safety and pharmacokinetic/pharmacodynamics (PK/PD) profile in healthy volunteer studies, Compound 1 is evaluated in patients (pts) with SCD, first in a single dose (SD or SAD) cohort and then in multiple-dose (MD or MAD) cohorts (14-day and 12-week). […]

[7] = test system: 2,3-DPG, ATP, p50, deformability of sickle RBCs; test: Phase 1, SCD patients single 700 mg dose: pharmacodynamics; format: in vivo, human; conditions: 72 hours after dosing
Description: as §1, with “12-week). Safety assessments include AEs, vital signs, ECGs and laboratory parameters.” for “12-week).”
A potential exposure to the maximum PD response dose range to evaluate in patients with SCD was identified. Based on the safety and PK/PD profile in healthy volunteer studies, a 700 mg single dose was evaluated in patients with SCD (n=7). […]
The effects of a single dose of Compound 1 (700 mg) versus placebo on oxygen scan, oxygen affinity (p50), and osmoscan in SCD patients were evaluated. […]
The oxygen affinity of RBCs was measured in patient blood using a Hemox Analyzer (TCS Scientific Corp.), an automatic system for the recording of blood oxygen equilibrium curves and related phenomena. […] This change is detected by the electronic circuitry and is plotted as the log/ratio change between the two wavelengths. […]

[8] = 2 μM Compound 1, presence or absence of FBP

O=C([C@H](CO)c1ccccc1)N1CC2=C(C1)CN(S(=O)(=O)c1cnc3c(c1)OCCO3)C2 (single isomer, unassigned) [Compound 1]
reduction of PEP Km [1, 8]: ~2 fold | Maximum-fold Activation ([1]; PEP at or below Km): <2.0 fold | Vmax (normalized) ([1]; 30 μM FBP, DMSO 1.19): 1.16 | Vmax (normalized) ([1]; no FBP, DMSO 1.00): 1.14 | reduction of PEP Km [2, 8]: ~2 fold | Maximum-fold Activation ([2]; PEP at or below Km): <3.0 fold | Vmax (normalized) ([2]; 30 μM FBP, DMSO 1.00): 1.29 | Vmax (normalized) ([2]; no FBP, DMSO 1.54): 1.56 | increase in PKR activity as measured by Vmax ([2]; certain physiologic conditions, FIG. 7): up to 1.8 fold | RBC oxygen affinity (p50) [3]: increases oxygen affinity in HbA RBCs | P50 versus DMSO ([4]; HbS RBCs in vitro, FIG. 16): lower P50 | elongation index versus DMSO, oxygen scan ([4]; HbS RBCs, 20 μM, FIG. 17): greater elongation index | RBC oxygen affinity (p50) ([4]; in vitro incubation, RBCs from SCD donors, FIG. 14): increases oxygen affinity in HbS RBCs | RBC deformability / Point of Sickling ([4]; sickle RBCs under decreasing oxygen, FIG. 15): improves RBC deformability at a lower oxygen tension | level of reticulocytes [5]: reduced the level of reticulocytes | percentage of RBCs that sickled at low oxygen pressures [5]: decreased | time to sickle [5]: increased | p50 ([5]; hypoxic conditions): decreased | hemoglobin levels ([6]; ns): slight increase in hemoglobin levels | absolute reticulocyte counts ([6]; p<0.0001): decrease in absolute reticulocyte counts | lactate dehydrogenase (LDH) [7]: Decreased lactate dehydrogenase (LDH)
